Results on 1 molecule are retold here after PMC8278108.

The chains behind the UniProt entries cited, without tags or fusion partners.
UniProt O43474: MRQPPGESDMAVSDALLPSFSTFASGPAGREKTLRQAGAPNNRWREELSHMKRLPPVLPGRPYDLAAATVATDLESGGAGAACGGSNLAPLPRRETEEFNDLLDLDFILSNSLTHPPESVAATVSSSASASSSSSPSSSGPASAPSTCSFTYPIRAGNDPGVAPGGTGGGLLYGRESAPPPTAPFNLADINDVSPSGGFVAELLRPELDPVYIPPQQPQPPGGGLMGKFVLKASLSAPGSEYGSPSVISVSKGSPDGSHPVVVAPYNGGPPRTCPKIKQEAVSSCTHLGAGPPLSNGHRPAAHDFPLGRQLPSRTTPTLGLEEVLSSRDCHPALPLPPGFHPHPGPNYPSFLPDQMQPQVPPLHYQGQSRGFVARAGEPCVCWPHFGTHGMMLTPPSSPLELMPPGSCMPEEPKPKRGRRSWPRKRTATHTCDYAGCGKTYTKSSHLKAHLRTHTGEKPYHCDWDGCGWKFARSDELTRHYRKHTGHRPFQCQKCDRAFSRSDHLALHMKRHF

This test addresses Flag-tagged KLF4 (Krüppel-like factor 4), full length (human) (UniProt O43474). The test is described as follows: co-IP; HEK293 cells co-transfected with Flag-KLF4 and Myc-USP11 (in Figure 2B also HA-Ub); Nonidet P-40 lysate; IP with anti-Flag beads, blot with anti-Myc.

These are yes or no findings as the source states them, for the method shown. In cells and extracts the contact can be indirect. Some binding calls cover weakened binding; strength is not graded here.

B1: Catalytically inactive USP11 (C318S) (enzyme, UniProt P51784 1-963)
chain: MAVAPRLFGGLCFRFRDQNPEVAVEGRLPISHSCVGCRRERTAMATVAANPAAAAAAVAAAAAVTEDREPQHEELPGLDSQWRQIENGESGRERPLRAGESWFLVEKHWYKQWEAYVQGGDQDSSTFPGCINNATLFQDEINWRLKEGLVEGEDYVLLPAAAWHYLVSWYGLEHGQPPIERKVIELPNIQKVEVYPVELLLVRHNDLGKSHTVQFSHTDSIGLVLRTARERFLVEPQEDTRLWAKNSEGSLDRLYDTHITVLDAALETGQLIIMETRKKDGTWPSAQLHVMNNNMSEEDEDFKGQPGICGLTNLGNTSFMNSALQCLSNVPQLTEYFLNNCYLEELNFRNPLGMKGEIAEAYADLVKQAWSGHHRSIVPHVFKNKVGHFASQFLGYQQHDSQELLSFLLDGLHEDLNRVKKKEYVELCDAAGRPDQEVAQEAWQNHKRRNDSVIVDTFHGLFKSTLVCPDCGNVSVTFDPFCYLSVPLPISHKRVLEVFFIPMDPRRKPEQHRLVVPKKGKISDLCVALSKHTGISPERMMVADVFSHRFYKLYQLEEPLSSILDRDDIFVYEVSGRIEAIEGSREDIVVPVYLRERTPARDYNNSYYGLMLFGHPLLVSVPRDRFTWEGLYNVLMYRLSRYVTKPNSDDEDDGDEKEDDEEDKDDVPGPSTGGSLRDPEPEQAGPSSGVTNRCPFLLDNCLGTSQWPPRRRRKQLFTLQTVNSNGTSDRTTSPEEVHAQPYIAIDWEPEMKKRYYDEVEAEGYVKHDCVGYVMKKAPVRLQECIELFTTVETLEKENPWYCPSCKQHQLATKKLDLWMLPEILIIHLKRFSYTKFSREKLDTLVEFPIRDLDFSEFVIQPQNESNPELYKYDLIAVSNHYGGMRDGHYTTFACNKDSGQWHYFDDNSVSPVNENQIESKAAYVLFYQRQDVARRLLSPAGSSGAPASPACSSPPSSEFMDVN
Turning to B1, the binding entry is on record as “binds”.
